Results are given in words; binding and its absence hold for the method and conditions named. Binding seen in cells or lysates may run through a third protein. A result given as binding can be weak or reduced; the word gives no strength. Tags and fused reporters may be left off the sequences shown.

The target of this assay is Flag-tagged IRF3 (interferon regulatory factor 3). The assay can be described thus: co-IP; HEK293T cells cotransfected with Flag-IRF3 or Flag-EV and HA-SOCS1 for 24 h; lysates precipitated with Flag beads overnight; washed 5 times with low-salt lysis buffer (50 mM HEPES, 150 mM NaCl, 1 mM EDTA, 10% glycerol, 1.5 mM MgCl2, 1% Triton X-100); Western blot. In general terms: Immunoblotting shows a protein as a band on a membrane.

B1: HA-tagged SOCS1 (suppressor of cytokine signaling 1) (protein, UniProt O35716 1-212)
chain: MVARNQVAADNAISPAAEPRRRSEPSSSSSSSSPAAPVRPRPCPAVPAPAPGDTHFRTFRSHSDYRRITRTSALLDACGFYWGPLSVHGAHERLRAEPVGTFLVRDSRQRNCFFALSVKMASGPTSIRVHFQAGRFHLDGSRETFDCLFELLEHYVAAPRRMLGAPLRQRRVRPLQELCRQRIVAAVGRENLARIPLNPVLRDYLSSFPFQI
B1: the binding entry is given as “binds”.

The values are drawn from publication PMC9765454.
